Reference: article PMC10949843
No constants are given. Whether binding was seen depends on the method and setting. Some entries that bind do so weakly or less than the wild type.

Protein sequences, listed by entry. Tags and fused reporters are not part of them. Residues count along the entry.
UniProt P52799, residues 28-333: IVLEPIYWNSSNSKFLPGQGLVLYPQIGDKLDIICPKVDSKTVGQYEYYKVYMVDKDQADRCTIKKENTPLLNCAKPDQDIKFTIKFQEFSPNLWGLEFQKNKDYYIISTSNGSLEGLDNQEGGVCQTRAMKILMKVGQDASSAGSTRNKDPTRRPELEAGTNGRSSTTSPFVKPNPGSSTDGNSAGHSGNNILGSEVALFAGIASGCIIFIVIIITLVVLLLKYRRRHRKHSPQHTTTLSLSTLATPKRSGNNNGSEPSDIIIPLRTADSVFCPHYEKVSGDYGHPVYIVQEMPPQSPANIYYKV

Tests used:
WT EFNB3 on Cho cells = target: T1, WT EFNB3 on Cho cells (UniProt Q15768); assay: flow cytometry on cells; only the binder purified
T1 sequence: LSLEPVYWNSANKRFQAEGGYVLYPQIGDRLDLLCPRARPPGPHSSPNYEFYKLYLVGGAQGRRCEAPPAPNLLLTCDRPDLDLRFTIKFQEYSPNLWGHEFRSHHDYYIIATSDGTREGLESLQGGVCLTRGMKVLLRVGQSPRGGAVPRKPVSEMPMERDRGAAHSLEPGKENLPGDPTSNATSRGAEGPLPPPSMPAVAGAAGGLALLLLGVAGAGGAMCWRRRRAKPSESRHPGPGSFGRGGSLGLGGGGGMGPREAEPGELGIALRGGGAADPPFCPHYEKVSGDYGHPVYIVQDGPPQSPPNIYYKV

WT EFNB2 on Cho cells = WT EFNB2 on Cho cells (UniProt P52799); assay: flow cytometry on cells; only the binder purified

B1: sEPHB3-hFc (Fc fusion, UniProt P54753)
chain: GCRALEETLMDTKWVTSELAWTSHPESGWEEVSGYDEAMNPIRTYQVCNVRESSQNNWLRTGFIWRRDVQRVYVELKFTVRDCNSIPNIPGSCKETFNLFYYEADSDVASASSPFWMENPYVKVDTIAPDESFSRLDAGRVNTKVRSFGPLSKAGFYLAFQDQGACMSLISVRAFYKKCASTTAGFALFPETLTGAEPTSLVIAPGTCIPNAVEVSVPLKLYCNGDGEWMVPVGACTCATGHEPAAKESQCRPCPPGSYKAKQGEGPCLPCPPNSRTTSPAASICTCHNNFYRADSDSADSACTTVPSPPRGVISNVNETSLILEWSEPRDLGGRDDLLYNVICKKCHGAGGASACSRCDDNVEFVPRQLGLTERRVHISHLLAHTRYTFEVQAVNGVSGKSPLPPRYAAVNITTNQAAPSEVPTLRLHSSSGSSLTLSWAPPERPNGVILDYEMKYFEKSEGIASTVTSQMNSVQLDGLRPDARYVVQVRARTVAGYGQYSRPAEFETTSERGSGAQQLQEQLPL
binding (WT EFNB3 on Cho cells): binds | binding (WT EFNB2 on Cho cells): binds
